Assay results from PubChem BioAssay AID540276 (National Center for Advancing Translational Sciences (NCATS), 2011).
Several values for one entry are separate records, joined by “and”; a condition that tells them apart may be missing. Equal entries are not always repeated. About 5,400 (1.8%) of roughly 300,000 compounds were called active. Inconclusive results, whose numbers are uncertain, are shown with a selection of clear calls. Calls come from the whole dose curve; tested in HEK293 cells. Potencies of inconclusive entries are doubtful fits and often do not repeat.

assay: qHTS for inhibitors of binding or entry into cells for Marburg Virus; settings: Marburg virus pseudotyped entry inhibition, cell reporter; series mostly up to 37.8 µM
Potency is the fitted concentration of half-maximal effect.

Row | Structure (SMILES) | Potency
1 | O=C(NCCOc1ccccc1)c1ccccc1Cl | inconclusive: 35.5 µM [inhibitor, single point]
2 | CCOC(=O)C1(CCCc2ccccc2)CCN(Cc2cnn(C)c2)CC1 | inconclusive: 6.31 µM [inhibitor, single point]
3 | CN(CCc1ccccn1)C(=O)CCC1CCCN(C(=O)CN2CCCCCC2)C1 (configuration not stated) | inactive
4 | Cc1cc(C)nc(NC(N)=NC(C)c2ccccc2)n1 (configuration not stated) | inconclusive: 35.5 µM [inhibitor, partial curve, poor fit]
5 | c1ccc(SCc2nc3ccccc3[nH]2)cc1 | inconclusive: 3.66 µM [activator, single point]
6 | CCc1ccccc1N(CC)C(=O)c1cc2c(s1)-c1ccccc1OC2 | inconclusive: 20 µM [inhibitor, single point]
7 | COc1cccc(NC(=O)c2oc3ccccc3c2NC(=O)C(C)(C)C)c1 | inconclusive: 29.1 µM [inhibitor, single point]
8 | COc1ccccc1N1CCN(CC(=O)Nc2c(C)n(C)n(-c3ccccc3)c2=O)CC1 | inconclusive: 8.91 µM [inhibitor, partial curve, poor fit]
9 | Cc1cccc(C(=O)NC(=S)Nc2ccc3[nH]c(=O)[nH]c3c2)c1 | inactive
10 | Cc1ccc(N(Cc2ccc(C(=O)Nc3ccccc3C(=O)NCc3ccco3)cc2)S(C)(=O)=O)cc1C | inconclusive: 2.59 µM [inhibitor, full curve]
11 | O=C(c1ccc(N2CCCCC2)c([N+](=O)[O-])c1)N(Cc1ccccc1)c1ccccn1 | inconclusive: 10.3 µM [inhibitor, partial curve, poor fit]
12 | CC(=O)Nc1sc(C)c(C)c1C(=O)OCC(=O)N(C)C1CCS(=O)(=O)C1 (configuration not stated) | inconclusive: 6.51 µM [inhibitor, single point]
13 | O=[N+]([O-])c1ccc(-n2nnnc2CN2CCOCC2)cc1 | inactive
14 | Cc1ccn2cc(CSc3ccccc3)nc2c1 | inconclusive: 10 µM [inhibitor, single point]
15 | O=C(c1ccccc1)N1CCN(C(=O)c2ccccc2)c2ccccc21 | inconclusive: 2.51 µM [inhibitor, full curve, poor fit]
16 | CCC(=O)Nc1ccc2nc(C3CC3)n(Cc3ccccc3)c(=O)c2c1 | inactive
17 | O=C(Nc1cccc(Cl)c1)Nc1ccnc(-c2cccnc2)n1 | inconclusive: 7.94 µM [inhibitor, partial curve, poor fit]
18 | Nc1cc(N)nc(SCC(=O)N2CCN(C(=O)c3ccco3)CC2)n1 | inactive
19 | COc1ccc(C(=O)NNc2cc(C)nc(NNC(=O)c3ccc(OC)cc3)n2)cc1 | inconclusive: 8.91 µM [activator, partial curve]
20 | Cc1ccc(N(C(=O)CS(=O)CC(=O)Nc2ccc(F)cc2)C(C)C(=O)NC(C)(C)C)cc1 (configuration not stated) | inconclusive: 1.78 µM [inhibitor, partial curve, poor fit]
21 | Cc1ccc2c(c1)N=C(c1ccc(Cl)cc1)CO2 | inconclusive: 3.55 µM [activator, single point]
22 | O=Nc1c(-c2c(O)[nH]c3cc(Br)ccc23)[nH]c2ccccc12 | inconclusive: 631 nM [activator, full curve] and inconclusive: 461 nM [activator, full curve]
23 | Cc1nnc(SCc2cc(=O)[nH]c(/N=C(\N)Nc3ccccc3)n2)s1 | inconclusive: 2.91 µM [inhibitor, full curve, poor fit]

An excerpt from above in order of molecular weight, largest number first:
Row | Structure (SMILES) | Potency
10 | Cc1ccc(N(Cc2ccc(C(=O)Nc3ccccc3C(=O)NCc3ccco3)cc2)S(C)(=O)=O)cc1C | inconclusive: 2.59 µM [inhibitor, full curve]
23 | Cc1nnc(SCc2cc(=O)[nH]c(/N=C(\N)Nc3ccccc3)n2)s1 | inconclusive: 2.91 µM [inhibitor, full curve, poor fit]
4 | Cc1cc(C)nc(NC(N)=NC(C)c2ccccc2)n1 (configuration not stated) | inconclusive: 35.5 µM [inhibitor, partial curve, poor fit]

Next structures

Row | Structure (SMILES) | Potency
24 | O=C1C(Cl)=C(N2CCCCC2)C(=O)N1c1ccccc1 | inactive
25 | Cc1onc(-c2ccccc2)c1C(=O)N/N=C/C(Br)=C/c1ccccc1 | inconclusive: 10.3 µM [inhibitor, partial curve, poor fit]
26 | O=[N+]([O-])c1cc(-c2nc(-c3cccnc3)no2)ccc1NCc1ccccc1 | inconclusive: 11.2 µM [inhibitor, partial curve, poor fit]
27 | COc1ccc(-c2cc(C3CCN(Cc4cccc(C(F)(F)F)c4)CC3)[nH]n2)cc1 | active: 10 µM
28 | COc1ccc(CN2CCNC(=O)C2CC(=O)NC2CCCC2)cc1OC (configuration not stated) | inactive
29 | Cc1ccc(C)c(CN2CCSCC2)c1 | inconclusive: 2.82 µM [inhibitor, partial curve, poor fit]
30 | O=C(CCN1CCCCCC1)Nc1cccc(F)c1 | inconclusive: 1.12 µM [inhibitor, full curve, poor fit]
31 | C/C(=N/Oc1nc(C)cc(C)n1)c1ccc(Br)cc1 | inactive
32 | COc1ccc(C)cc1NC(=O)NC1CCCCCCC1 | inconclusive: 7.08 µM [inhibitor, partial curve, poor fit]
33 | O=C(Cn1c(=O)n(-c2ccccc2)c(=O)c2sc3ccccc3c21)N1CCCC1 | inactive
34 | O/N=C/c1cc(Br)ccc1OCc1ccc(F)cc1 | inconclusive: 15.8 µM [inhibitor, single point]
35 | CCOC(=O)C1=C(c2ccccc2)NC(SCC(=O)Nc2ccc(C)cc2)=C(C#N)C1c1ccco1 (configuration not stated) | inconclusive: 29.1 µM [inhibitor, single point]
36 | CCCCCCn1c(N)c(C(=O)NCCN2CCOCC2)c2nc3ccccc3nc21 | inconclusive: 22.4 µM [inhibitor, single point]
37 | CCOC(=O)c1cccc(NC(=O)CSc2nnc(-c3ccncc3)n2CCCOC)c1 | inconclusive: 32.6 µM [activator, partial curve, poor fit]
38 | Cc1ccc(NC(=O)c2c(-c3ccccc3)noc2C)nc1 | inconclusive: 5.62 µM [inhibitor, partial curve, poor fit]
39 | CCC(C(=O)Nc1ccc(OC)c(Cl)c1)c1ccccc1 (configuration not stated) | inconclusive: 1.26 µM [activator, single point]
40 | Cn1c(=O)c(C(=O)NCC2CCCO2)c(O)c2ccccc21 (configuration not stated) | inconclusive: 15.8 µM [activator, single point]
41 | COc1cccc(-c2nn(-c3ccc(C)cc3)cc2C(=O)NCC(c2cccs2)N2CCOCC2)c1 (configuration not stated) | inconclusive: 35.5 µM [inhibitor, single point]
42 | O=[N+]([O-])c1ccc2c(c1)CNc1ccccc1O2 | inconclusive: 12.6 µM [inhibitor, single point]
43 | CCCc1nnc(NC(=O)Cc2coc3cc(C)cc(C)c23)s1 | inactive
44 | CN(C)S(=O)(=O)Oc1cccc(C(=O)Nc2ccc([N+](=O)[O-])cc2)c1 | inconclusive: 3.16 µM [inhibitor, partial curve, poor fit]
45 | Cc1ccc(-c2n[nH]c(=S)n2/N=C/C=C/c2ccccc2[N+](=O)[O-])cc1 | inactive
46 | Cc1cc(N2CCCCC2)nc2ccc(NC(=O)c3cccc(F)c3)cc12 | inconclusive: 35.5 µM [inhibitor, single point]

Copied from the list:
Value for CCC(=O)Nc1ccc2nc(C3CC3)n(Cc3ccccc3)c(=O)c2c1 under Potency: inactive
Value for O=C(Nc1cccc(Cl)c1)Nc1ccnc(-c2cccnc2)n1 under Potency: inconclusive: 7.94 µM [inhibitor, partial curve, poor fit]

(continued)

Row | Structure (SMILES) | Potency
47 | Cc1nn(C)c(C)c1CNC(=O)/C=C/c1ccccc1F | inconclusive: 15.8 µM [inhibitor, partial curve, poor fit]
48 | O=C1CN(C(=O)Cn2ncc(Cl)c(Cl)c2=O)c2ccccc2N1 | inconclusive: 2.82 µM [inhibitor, partial curve, poor fit]
49 | O=C1NCC(COCc2ccccc2)O1 (configuration not stated) | inconclusive: 5.62 µM [inhibitor, single point]
50 | CCN(CC)CC(=O)NN=C(c1ccccc1)c1ccccc1 | inconclusive: 1.26 µM [inhibitor, single point]
51 | Cn1c(SCC(=O)c2ccccc2)ncc(C(=O)Nc2ccccc2)c1=O | inconclusive: 5.62 µM [activator, single point]
52 | CC1CCN(S(=O)(=O)c2ccc3c(c2)N(CC(=O)NC(C)c2ccccc2)C(=O)CO3)CC1 (configuration not stated) | inactive
53 | CC1=C(c2ccccc2)C(O)(c2ccccc2)C(C)C1=O (configuration not stated) | inconclusive: 3.16 µM [inhibitor, full curve]
54 | O=C(NC(=S)Nc1cccc2[nH]ncc12)c1ccccc1 | inconclusive: 3.16 µM [activator, single point]
55 | CC(C(=O)Nc1ccc(N(C)C)cc1)N1C(=O)c2ccccc2S1(=O)=O (configuration not stated) | inconclusive: 7.08 µM [activator, partial curve, poor fit]
56 | COc1ccccc1OCC(=O)NCCSCc1cccc(Cl)c1 | inactive
57 | CSc1cccc(NC(=O)CN(c2ccccc2)S(=O)(=O)N(C)C)c1 | inconclusive: 14.6 µM [inhibitor, partial curve, poor fit] and inconclusive: 14.1 µM [inhibitor, single point]
58 | CC(C)c1ccc(O)c(NC(=O)c2cncc(Br)c2)c1 | inactive
59 | Nc1nnc(-c2cn(-c3ccccc3)nc2-c2ccccc2)o1 | inactive
60 | Cc1ccnc(NC(=O)c2ccco2)n1 | inconclusive: 0.891 µM [inhibitor, full curve, poor fit]
61 | CC(=O)c1cnc(Nc2ccc(C)cc2)s1 | inconclusive: 10 µM [activator, single point]
62 | NC(=O)c1ccc(NC(=O)c2ccc3c(c2)CCN3S(=O)(=O)c2ccccc2)cc1 | inconclusive: 22.4 µM [inhibitor, single point]
63 | COC(=O)c1ccc(-c2nc3ccccc3o2)cc1 | inactive
64 | O=C(Nc1ccccc1)N1CCN(C2c3ccccc3-c3ccccc32)CC1 | inconclusive: 22.4 µM [inhibitor, single point]
65 | CCOCc1cnc(C)nc1NCC(=O)c1c(C)[nH]c2ccccc12 | inconclusive: 6.31 µM [inhibitor, single point]
66 | Cc1noc(C)c1C(=O)NCc1ccccc1F | inactive
67 | CC(C)C(=O)c1cn(Cc2ccc(C#N)cc2)c2ccccc12 | inconclusive: 35.5 µM [inhibitor, single point]
